Measurements reported in PubChem BioAssay AID652243 (Drosophila RNAi Screening Center, 2013).

Aim: 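Knock-downs that decrease or increase androgen receptor reporter signal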 (primary screen)
Cell system: Drosophila S2R+ cells
Reagents: long dsRNA against Drosophila genes
Timing: 72 h (48 h, then 24 h hormone)
Challenge: synthetic androgen R1881 at 10 nM for 24 h
Measurement: 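Per-well raw luminescence of the androgen-driven firefly reporter and of the Renilla control, two replicates each, without normalisation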
Direction: firefly reporter light: higher = more light from androgen-responsive reporter; Renilla control light: higher = more constitutive control signal (cell number, transfection)
Rule for the call: 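Across duplicate plates, a knock-down whose log firefly/Renilla ratio shifted a set fold down or up from the GFP/LacZ control mean was a hit; the downward cut appears as both 1.5 and 3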
Calls: active = hit: reporter lowered or raised; inactive = no hit
The deposit covers about 24,000 reagents; this is a random part of those that have a named target and a result. Over the whole deposit, 246 (1%) were called active. 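Plates not normalised; calls are printed but the firefly/Renilla ratio behind them is not deposited; fold cut for lowering reported inconsistently.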 Raw values are not corrected between plates. The numbers tell different reagents against one gene apart. Names joined by + are all predicted targets of the reagent. Not given: the amount of reagent.

gene knocked down,reagent,"firefly reporter light, replicate 1","firefly reporter light, replicate 2","Renilla control light, replicate 1","Renilla control light, replicate 2",outcome
janB,1,1.97e5,2.03e5,1.78e6,2.58e6,inactive
Nepl19,1,4.14e5,5.30e5,2.23e6,3.78e6,inactive
Spase25,1,1.27e5,1.66e5,7.01e5,8.27e5,inactive
Pp1-Y1,1,7.97e5,7.82e5,1.72e6,1.61e6,inactive
CR33221,1,9.38e5,7.56e5,7.25e5,6.93e5,inactive
CG31021,1,1.12e6,1.20e6,1.55e6,1.50e6,inactive
GNBP2,1,38291,42088,3.32e5,3.10e5,inactive
Roc2,1,3.37e5,2.29e5,2.35e6,1.43e6,inactive
Roc2,2,3.08e5,3.85e5,8.59e5,8.68e5,inactive
CG42813,1,83504,80317,8.15e5,7.77e5,inactive
Gpb5,1,6.39e5,6.29e5,5.27e6,3.69e6,inactive
Ank,1,36388,43216,3.33e5,3.19e5,inactive
Ank,2,9.77e5,7.20e5,1.55e6,1.61e6,inactive
Socs44A,1,3.56e5,2.81e5,2.11e6,1.85e6,inactive
GlyT,1,1.09e5,2.00e5,1.40e6,1.21e6,inactive
GlyT,2,2.57e5,2.39e5,8.42e5,8.03e5,inactive
CG7714,1,4.22e5,3.65e5,3.95e6,4.31e6,inactive
CG7714,2,1.54e6,1.38e6,1.42e6,1.11e6,inactive
CG31523,1,1.88e5,2.32e5,1.70e5,1.83e5,inactive
CG31523,2,8.47e5,8.62e5,1.59e6,1.39e6,inactive
CG31523,3,3.02e5,2.63e5,5.43e5,6.26e5,inactive
Ptp69D,1,2.54e5,1.79e5,3.07e6,2.20e6,inactive
Ptp69D,2,,,,,inactive
Ptp69D,3,,,,,inactive
CG4707,1,6.11e5,5.24e5,1.03e6,1.01e6,inactive
CG3597,1,1.21e5,51335,8.40e5,6.17e5,inactive
CG3597,2,5.71e5,7.81e5,1.06e6,1.17e6,inactive
Toll-9,1,3.06e5,1.97e5,1.94e6,2.03e6,inactive
CG11470,1,1.64e5,1.79e5,2.18e6,2.03e6,inactive
STUB1,1,2.06e5,3.02e5,1.32e6,2.00e6,inactive
CG15336,1,2.02e5,2.28e5,2.10e6,2.13e6,inactive
CG15336,2,6.65e5,4.21e5,1.50e6,1.45e6,inactive
Takl2,1,1.46e5,2.09e5,2.77e6,2.64e6,inactive
Takl2,2,,,,,inactive
CR41379 + Rint1,1,1.16e6,1.02e6,1.74e6,2.00e6,inactive
Eip78C,1,7.03e5,7.25e5,1.62e6,1.80e6,inactive
sinu,1,6.33e5,5.95e5,2.47e6,3.32e6,inactive
Gss1 + Gss2,1,4.45e5,3.75e5,2.96e6,2.70e6,inactive
Gss1 + Gss2,2,7.26e5,6.36e5,75078,67366,inactive
atms,1,30045,46656,3.62e5,2.85e5,inactive
atms,2,2.39e5,2.31e5,3.12e5,5.64e5,inactive
fus,1,1.38e5,1.92e5,4.58e5,6.33e5,inactive
fus,2,1.12e6,1.46e6,2.31e6,2.92e6,inactive
CG43691,1,2.50e5,2.11e5,2.04e6,1.85e6,inactive
CG43691,2,2.12e5,1.43e5,1.76e6,1.06e6,inactive
CG6621,1,36623,59865,2.65e5,3.86e5,inactive
CG6621,2,3.61e5,3.33e5,1.01e6,1.09e6,active
Osi23,1,2.25e5,2.83e5,2.60e6,2.51e6,inactive
Oatp74D,1,1.61e5,1.53e5,1.98e5,1.42e5,inactive
Oatp74D,2,21544,57892,2.84e5,3.25e5,inactive
frtz,1,87820,98494,5.59e5,7.69e5,inactive
CG13738,1,9.05e5,1.37e6,2.30e6,2.34e6,inactive
CG13738,2,7.01e5,9.50e5,1.30e6,1.28e6,inactive
cert,1,1.10e6,9.63e5,1.96e6,2.19e6,inactive
cert,2,,,,,inactive
cert,3,,,,,inactive
CG10543,1,3.93e5,3.03e5,1.65e6,1.33e6,inactive
pie,1,8.27e5,4.41e5,2.04e6,1.31e6,inactive
Spn55B,1,2.88e5,2.27e5,1.50e6,1.74e6,inactive
Spn55B,2,6.05e5,6.49e5,1.07e6,7.02e5,inactive
Spn55B,3,4.84e5,3.90e5,1.09e6,5.58e5,inactive
udd,1,2.18e5,2.84e5,1.18e6,9.18e5,inactive
Mmp1,1,1.29e5,1.34e5,1.27e6,9.85e5,inactive
Pfdn6,1,2.08e5,1.93e5,2.90e6,1.97e6,inactive
BomS1,1,6.79e5,6.80e5,3.24e5,2.33e5,inactive
CG11695,1,67743,51722,1.82e6,1.65e6,inactive
CG11695,2,4.40e5,3.56e5,8.43e5,1.23e6,inactive
CG7367,1,1.31e5,1.61e5,1.43e6,1.50e6,inactive
CG7367,2,7.47e5,1.04e6,1.43e6,2.03e6,inactive
ND-B14,1,2.25e5,1.59e5,1.56e6,1.16e6,inactive
ND-B14,2,3.73e5,3.54e5,1.29e6,1.39e6,inactive
Npc1b,1,1.89e5,1.49e5,5.48e5,3.72e5,inactive
CG14420,1,4.57e5,3.22e5,2.59e6,2.71e6,inactive
CG14420,2,8.11e5,7.32e5,9.33e5,9.95e5,inactive

A run of entries of the results above, for reference:
gene knocked down,reagent,"firefly reporter light, replicate 1","firefly reporter light, replicate 2","Renilla control light, replicate 1","Renilla control light, replicate 2",outcome
cert,1,1.10e6,9.63e5,1.96e6,2.19e6,inactive
cert,2,,,,,inactive
cert,3,,,,,inactive
CG10543,1,3.93e5,3.03e5,1.65e6,1.33e6,inactive
